The assay concerns BDF1 mice, Adenocarcinoma 755 s.c., tumor weight T/C. In words: NCI In Vivo Anticancer Drug Screen. Data for tumor model Adenocarcinoma 755 (subcutaneous) in B6D2F1 (BDF1) mice. Conditions: T/C endpoint: mean tumor weight, schedule: Q01DX011 (ip), higher T/C = larger tumour; for T/C: evaluated on day 12. Here is the method: The antitumor activity of compounds was measured in mice bearing transplantable tumors. Survival or tumor size were measured and the results are expressed as the measurement made in the treated group (T) divided by the measurement made in the vehicle treated control group (C). The tumor model used in this assay is Adenocarcinoma 755 (subcutaneous) in B6D2F1 (BDF1) mice

Where [1] appears, read: dose: 25.0 mg/kg/injection, vehicle: carboxymethylcellulose (CMC).
The mark [2] stands for this setting: dose: 50.0 mg/kg/injection, vehicle: carboxymethylcellulose (CMC).
The mark [3] stands for this setting: dose: 100.0 mg/kg/injection, vehicle: carboxymethylcellulose (CMC).

The list shows only some results of the screen, not a fair sample: it is rich in T/C values a quarter to a half above the control, in often repeated tests (any T/C) and in doses without a T/C. Other doses and runs of a compound stand elsewhere. T/C: endpoint of the treated group in % of that of the vehicle group. Schedule codes are those of the source, read here as Q, the interval in days (D) or hours (H), X, the number of doses. Some T/C values are followed by the survivors on the day toxicity was checked, most often the fifth; without a count, all were alive then. Some entries hold several experiments; the results are listed from low to high. Some doses have a count of surviving animals in place of a T/C: the source holds a T/C of zero for them, seemingly a mark for toxic or unscored doses. Survivors were counted at the toxicity check, usually on the fifth day, unless a day is given; later deaths do not show.

For the compound `O=[As]O`, the T/C (dose: 1.57 mg/kg/injection, vehicle: carboxymethylcellulose (CMC)) is 142 % of control. For the same compound, the survivor count was 2 of 10 (dose: 10.0 mg/kg/injection, vehicle: methylcellulose (MC)) and 5 of 10 (dose: 13.0 mg/kg/injection, vehicle: carboxymethylcellulose (CMC)).

Regarding `COc1ccc(C2=NC(=O)NC2c2ccc(OC)cc2)cc1` (centres undefined), the survivor count (dose: 200.0 mg/kg/injection, vehicle: saline) is recorded as 1 of 10.

As to `COCCCNS(=O)(=O)c1ncnc2nc[nH]c12`, the T/C was 140 % of control (dose: 1.0 mg/kg/injection, vehicle: saline); 125 % of control (dose: 6.0 mg/kg/injection, vehicle: saline); 5, 14 [9 of 10 alive], 21 % of control under setting [1]. Besides, the survivor count is recorded as 6 of 10 (dose: 10.0 mg/kg/injection, vehicle: carboxymethylcellulose (CMC)); 5 of 10 under setting [1]; 3 of 10 under setting [2]; 4 of 10 under setting [3]; 0 of 10 (dose: 150.0 mg/kg/injection, vehicle: carboxymethylcellulose (CMC)).

Regarding `CC(=O)Nc1c(Cl)c(Cl)c2c(c1Cl)C(=O)c1cc(Cl)ccc1-2`, the T/C (dose: 100.0 mg/kg/injection, vehicle: other) was 129 % of control. In addition, the survivor count was 3 of 10 (dose: 200.0 mg/kg/injection, vehicle: methylcellulose (MC)) and 3 of 10 (dose: 400.0 mg/kg/injection, vehicle: methylcellulose (MC)).

As to `O=C(CCBr)NCCCNC(=O)CCBr`, the survivor count (dose: 225.0 mg/kg/injection, vehicle: methylcellulose (MC)) was 6 of 10.

As for `CCCCCCC(=O)NC1=C(N2CC2)C(=O)C(NC(=O)CCCCCC)=C(N2CC2)C1=O`, the survivor count (dose: 22.5 mg/kg/injection, vehicle: carboxymethylcellulose (CMC)) is 6 of 10.

For `CCOC(=O)C1=C(C)NC(C)=C(C(=O)OCC)C1C`, the survivor count (dose: 500.0 mg/kg/injection, vehicle: other) is given as 1 of 10.

In the case of `Cn1ncc2c(NCc3ccccc3)ncnc21`, the survivor count (dose: 40.0 mg/kg/injection, vehicle: carboxymethylcellulose (CMC)) is given as 2 of 10.

On to `COC(=O)C1C(O)CCC2CN3CCc4c([nH]c5ccccc45)C3CC21` (centres undefined), for which the T/C (dose: 75.0 mg/kg/injection, vehicle: carboxymethylcellulose (CMC)) was 137 % of control. The survivor count (dose: 300.0 mg/kg/injection, vehicle: carboxymethylcellulose (CMC)) was 0 of 10.

Regarding `O=C1C=C(c2ccccc2)C(=O)C=C1c1ccccc1`, the survivor count runs as follows: (dose: 25.0 mg/kg/injection, vehicle: other) 1 of 10; (dose: 50.0 mg/kg/injection, vehicle: other) 5 of 10.

For the compound `CCCCOC(=O)C1(N)CCCC1`, under setting [3], the survivor count is 4 of 10.

On to `O=C1N(Br)C(=O)C(c2ccc(Cl)cc2)(c2ccc(Cl)cc2)N1Br`, for which the survivor count is on record as 6 of 10 (dose: 56.0 mg/kg/injection, vehicle: carboxymethylcellulose (CMC)); 2 of 10 (dose: 112.0 mg/kg/injection, vehicle: carboxymethylcellulose (CMC)); 4 of 10 (dose: 120.0 mg/kg/injection, vehicle: carboxymethylcellulose (CMC)).

For `Cc1cc2nc3c(=O)[nH]c(=O)nc-3n(CC(O)C(O)C(O)C(O)CO)c2cc1C` (centres undefined), the T/C (dose: 19.0 mg/kg/injection, vehicle: carboxymethylcellulose (CMC)) was 147 % of control [9 of 10 alive]. The survivor count (dose: 250.0 mg/kg/injection, vehicle: methylcellulose (MC)) is 4 of 10.

On to `O=S(=O)(O)C(Nc1ccccc1)c1ccccc1` (centres undefined), for which the T/C under setting [3] is 125 % of control.

Take `O=c1[nH]c(=O)n(C2CC(O)C(CO)O2)cc1F` (centres undefined): the survivor count (dose: 150.0 mg/kg/injection, vehicle: other) is 6 of 12.

Consider `CS(=O)(=O)OCC(O)C(O)COS(C)(=O)=O` (centres undefined), for which the survivor count (dose: 1000.0 mg/kg/injection, vehicle: carboxymethylcellulose (CMC)) is reported as 6 of 10.

As for `Nc1nc(Oc2ccc(Cl)cc2)c2n[nH]nc2n1`, under setting [3], the T/C is 149 % of control.

`CC(=O)Nc1c(Cl)c(Cl)c2c(c1Cl)Cc1cc(Br)ccc1-2`: the survivor count was 6 of 10 under setting [2] and 4 of 10 under setting [3].

Consider `CN(C)C1C(=O)C(C(N)=O)=C(O)C2(O)C(=O)C3=C(O)c4c(O)cccc4C(C)(O)C3C(O)C12` (centres undefined), for which the T/C reads like this: (dose: 39.72 mg/kg/injection, vehicle: carboxymethylcellulose (CMC)) 130 % of control [8 of 10 alive]; (dose: 63.56 mg/kg/injection, vehicle: carboxymethylcellulose (CMC)) 126 % of control.

Regarding `COc1cc2c(c(OC)c1OC)-c1ccc(N)c(=O)cc1[C@@H](NC(C)=O)CC2`, the survivor count (dose: 8.0 mg/kg/injection, vehicle: saline) is reported as 4 of 10.

With `CCN(CC)c1ccc(/C=C/c2ccnc3ccccc23)cc1`, the survivor count is reported as 6 of 10 (dose: 3.0 mg/kg/injection, vehicle: carboxymethylcellulose (CMC)); 6 of 10 (dose: 5.0 mg/kg/injection, vehicle: other); 1 of 10 (dose: 6.05 mg/kg/injection, vehicle: carboxymethylcellulose (CMC)); 3 of 10 (dose: 10.35 mg/kg/injection, vehicle: carboxymethylcellulose (CMC)); 6 of 10 (dose: 12.1 mg/kg/injection, vehicle: carboxymethylcellulose (CMC)); 2 of 10 (dose: 12.9 mg/kg/injection, vehicle: carboxymethylcellulose (CMC)). The survivor count runs as follows: (dose: 16.0 mg/kg/injection, vehicle: carboxymethylcellulose (CMC)) 1 of 10; (dose: 16.66 mg/kg/injection, vehicle: carboxymethylcellulose (CMC)) 2 of 10; (dose: 20.0 mg/kg/injection, vehicle: other) 5 of 10 and 6 of 10; (dose: 24.2 mg/kg/injection, vehicle: carboxymethylcellulose (CMC)) 1 of 10; (dose: 25.8 mg/kg/injection, vehicle: carboxymethylcellulose (CMC)) 1 of 10; (dose: 25.8 mg/kg/injection, vehicle: other) 5 of 10.

Take `C=CCn1cnc2c(Cl)ncnc21`: the survivor count (dose: 200.0 mg/kg/injection, vehicle: carboxymethylcellulose (CMC)) was 4 of 10.

For `O=C(Nc1ccc(NC2=NCCN2)cc1)c1ccc(C(=O)Nc2ccc(NC3=NCCN3)cc2)cc1`, the T/C (dose: 2.0 mg/kg/injection, vehicle: saline) was 143 % of control [9 of 10 alive]. The survivor count (dose: 32.0 mg/kg/injection, vehicle: saline) was 0 of 10 and the survivor count (dose: 64.0 mg/kg/injection, vehicle: saline) is on record as 0 of 10.

For the origin of these results see PubChem BioAssay AID180 (DTP/NCI, 2004).
